Test results: the supplement of paper PMC5949888
Most values lie at the floor of the assay. Slopes are relative: functional sequences can read slightly below zero.

Tested on: Saccharomyces cerevisiae PS128 hsf1 delta, HSF1(1-493) fusion
Experiment: growth estimate (transactivation domain function in HSF1 fusion, heat-shock survival) (a.u. (slope of normalised read count over time)); higher = stronger growth at 37°C, i.e. more transactivation activity
Conditions: library: random library

Row | Substance | growth estimate
1 | VDITNFEGCVMGVTSLFESR | < -0.25
2 | VDIYRRTMFAREITLPELPY | < -0.25
3 | VDLGWANRGTTGRGG | < -0.25
4 | VDLHRLAPLSFTFARAIHLW | < -0.25
5 | VDLISRRMSFVISLLQGSRR | < -0.25
6 | VDPRDTPHTIEIHKIQVTLL | < -0.25
7 | VDRG | < -0.25
8 | VDRLLVRVQVRIHGLCTFFE | < -0.25
9 | VDRRKRCPRFARYSLGWLAI | < -0.25
10 | VDSAA | < -0.25
11 | VDSLYPFCVRVELLRPISTP | < -0.25
12 | VDSSIVLTAFRTLSGGFSYS | < -0.25
13 | VDSYGRPVSSGSRDE | < -0.25
14 | VDVGLLVGGAG | < -0.25
15 | VDVKDGYDILVPSCTLGFVC | < -0.25
16 | VEASCSHPDGGLGGDRIVQQ | < -0.25
17 | VECDRTFSRRRVV | < -0.25
18 | VECRRHVFGCLGQMSPRTRR | < -0.25
19 | VEGAQVGIIGLGPCCGQYQQ | < -0.25
20 | VEGSKVTTD | < -0.25
21 | VEIEM | < -0.25
22 | VEKLTYEPRILLGITGNQTR | < -0.25
23 | VELVEVSLIAYGGAMAHESR | < -0.25
24 | VEMAKGLHYAVWLPLLALPI | < -0.25
25 | VENGGQETTLQWVTIGSLKP | < -0.25

Row | Substance | growth estimate
26 | VENRIQSQRVSP | < -0.25
27 | VERCVLWMGRLAGGYGSFTA | -0.243
28 | VERDTS | -0.136
29 | VERGDFRTDACNKFR | < -0.25
30 | VERLDMTVLAAPSVVRRAGS | < -0.25
31 | VERPG | < -0.25
32 | VERTRSRAVNPAGRSVGPHN | < -0.25
33 | VEVDPAGLISVRWRTATWQ | < -0.25
34 | VEVLSKDDVKIATALPACIS | < -0.25
35 | VEVR | < -0.25
36 | VEVTYLASGRRPDTMVRITT | < -0.25
37 | VEYGCVCGRVNY | < -0.25
38 | VEYWFPNSCWDGCIGRGA | -0.163
39 | VFGCHTIGGTSG | < -0.25
40 | VFGSSFGDSSNHITHTKSFK | < -0.25
41 | VFGTLAQCRNFEKMWRFM | < -0.25
42 | VFHRKALAGIPGIRMGSY | < -0.25
43 | VFILRLSDIVSASTLTEYSS | < -0.25
44 | VFIVSGTAAEYSQSSLI | < -0.25
45 | VFKHHILVP | < -0.25
46 | VFLTISFTN | < -0.25
47 | VFM | < -0.25
48 | VFPYCMTYAFH | < -0.25
49 | VFRTTFKRVKQLVNAQSAPS | < -0.25
50 | VFSSVVHTA | < -0.25

Reprinted from the listing for reference:
Row | Substance | growth estimate
33 | VEVDPAGLISVRWRTATWQ | < -0.25
34 | VEVLSKDDVKIATALPACIS | < -0.25

(continued)

Row | Substance | growth estimate
51 | VFTRDCPVVWTKTSYLRMAE | < -0.25
52 | VFVGIDTPFPMFGFYGPGLQ | 0.0033
53 | VFVYPSKLSGANNWQKL | < -0.25
54 | VGAFPRQHCVSCLGSVQSCV | < -0.25
55 | VGAGDVVSRSTLAHLANVCR | < -0.25
56 | VGARF | < -0.25
57 | VGAVN | < -0.25
58 | VGCFADKTFGPHNTIAGSTP | < -0.25
59 | VGCHYGQKPYLSNIERRQGV | < -0.25
60 | VGCLSVFKFSAKGRHHLILG | < -0.25
61 | VGCSGSAP | < -0.25
62 | VGCVAQVAGGMQRAIYHSLQ | < -0.25
63 | VGCVKASDGIPSSCIRATWE | < -0.25
64 | VGDLVGL | < -0.25
65 | VGDRIICGSKRGSQGVPGQP | < -0.25
66 | VGDVQPKIDLTPLCA | < -0.25
67 | VGEGRAIMVSQKMGVVGGLC | < -0.25
68 | VGEVKGVCASHKRVVDNFAL | < -0.25
69 | VGEYPRPPNRRTGYDNHQIK | < -0.25
70 | VGFKSAFVVVLPPIGVMTDL | -0.117
71 | VGFLTSRVGNR | < -0.25
72 | VGFRVLLFQKNGIGTSPVQS | < -0.25
73 | VGGTR | < -0.25
74 | VGHPTNYG | < -0.25
75 | VGICFLQNGPGTLVKNRAAA | < -0.25

Row | Substance | growth estimate
76 | VGINHDGRRVMVYTARG | < -0.25
77 | VGIPTARSCHGIEWNKTGAA | < -0.25
78 | VGKPSTLLVP | < -0.25
79 | VGLC | < -0.25
80 | VGLCIAVRTAGGGTGIQCSR | < -0.25
81 | VGLD | < -0.25
82 | VGLGLRNRKYT | < -0.25
83 | VGLNLINDVSESLKTCQEAV | < -0.25
84 | VGLSDFDRLCRVTRAQHVVQ | -0.204
85 | VGMDSVMSARVSLCRQAKGT | < -0.25
86 | VGMFEHHEDWRALRSVHGLG | < -0.25
87 | VGMTTLLCQPPIGNH | < -0.25
88 | VGNLRRKALPLASREQPVHL | < -0.25
89 | VGNVEVSQTERFRMSPK | < -0.25
90 | VGPAEYLKSLCLHRRRVSIS | < -0.25
91 | VGPFATVSCERGRPCPGYTM | < -0.25
92 | VGPVSGLSHCEIHDWIWLP | < -0.25
93 | VGQGIEGWFPGAAARLRGGI | < -0.25
94 | VGQQPEHL | < -0.25
95 | VGQVDAF | < -0.25
96 | VGRGAISEGRCTGVIRAPMA | < -0.25
97 | VGRGSAQRARPGLITKKLTA | < -0.25
98 | VGRPSWPGKKSPFRRYSPPC | < -0.25
99 | VGRR | < -0.25
100 | VGSCGLSCFGLSSERRFVRY | < -0.25

Laid out differently: entries from further up.

| Row | Substance | growth estimate |
| --- | --- | --- |
| 89 | VGNVEVSQTERFRMSPK | < -0.25 |
| 90 | VGPAEYLKSLCLHRRRVSIS | < -0.25 |

The results go on:

Row | Substance | growth estimate
101 | VGSEWTLGTKNWVAAPRNSL | < -0.25
102 | VGSGNSGSGEGQDAEGRAVS | < -0.25
103 | VGSGVRWDLVLVRSDSICHW | < -0.25
104 | VGSHHRFGIIPRRCETYW | < -0.25
105 | VGSIGLLLSSQMLVG | < -0.25
106 | VGSQFCKNVVLSAPSLVSRY | < -0.25
107 | VGSVFRAQWRLERPSACRGG | < -0.25
108 | VGSVYQLGRPS | < -0.25
109 | VGSYRQHTRGGVNSRHDPLG | < -0.25
110 | VGTIV | < -0.25
111 | VGTLEGLCDHGTGTTVNNFT | < -0.25
112 | VGTNYTIKGEAKCTRCPAAT | < -0.25
113 | VGTSII | < -0.25
114 | VGTSSTARQNRQYDRGPVPS | < -0.25
115 | VGTYGRG | < -0.25
116 | VGVDDEGLAVLHRFRYSYNS | < -0.25
117 | VGVGNTQRKTVFYTCWGTPR | < -0.25
118 | VGVGNTR | < -0.25
119 | VGVSNWELLLPNESYIALDP | < -0.25
120 | VGVSPGEARQQGCFVVPRSA | < -0.25
121 | VGVWPRDSVADSPRAGLISS | < -0.25
122 | VGYCQVGGH | < -0.25
123 | VGYIAANGVNMVVGYVIRSH | < -0.25
124 | VHFPVSQLPV | < -0.25
125 | VHG | < -0.25

A different layout for some results above:
VDRLLVRVQVRIHGLCTFFE
  growth estimate = < -0.25
VDRRKRCPRFARYSLGWLAI
  growth estimate = < -0.25
VDSAA
  growth estimate = < -0.25
VDSLYPFCVRVELLRPISTP
  growth estimate = < -0.25

More records

Row | Substance | growth estimate
126 | VHGECTGATDRHFRQLSLEV | < -0.25
127 | VHGS | < -0.25
128 | VHGSEVVCDWYLDWAWEVTV | < -0.25
129 | VHGSPQHTTETARPSCVSRV | < -0.25
130 | VHIRPVLVIARRLRVFRFSG | < -0.25
131 | VHLEPTVRVCILWSHSSGDP | < -0.25
132 | VHLLLPVGSKLKEWTEDSSV | < -0.25
133 | VHLSVLTPKVDLPSSWHESR | < -0.25
134 | VHPGPGIAEPPKLEWTRSCS | < -0.25
135 | VHPTLDGHIWSRILT | < -0.253
136 | VHRFRYSLEAARSRLKIYPP | -0.231
137 | VHRP | < -0.25
138 | VHRSTVFPGRAASDALYNVD | < -0.25
139 | VHSGASSGKTIHKVIDIAWN | < -0.25
140 | VHSPTDMAW | < -0.25
141 | VHSWGVLG | < -0.25
142 | VHTTY | < -0.25
143 | VHVIPLKPPINVEHDIQEKA | < -0.25
144 | VHVTFVN | < -0.25
145 | VHWISGGSGEGANTDVGFLI | < -0.25
146 | VHY | < -0.25
147 | VIAARIYT | < -0.25
148 | VIARRRGIEWDIR | < -0.25
149 | VIDQSLGE | < -0.25
150 | VIFITDRRSNEGPLGPAGAG | -0.25

Row | Substance | growth estimate
151 | VIG | < -0.25
152 | VIGHGAPYGILQQCPAVYTI | < -0.25
153 | VIGTLSGVRPQSTEVSWK | < -0.25
154 | VIGVVRGGIMKGKRTLGGPC | < -0.25
155 | VIGYIRTWALTAYPSTIAVG | < -0.25
156 | VIHLAIPSRKGTEVG | < -0.25
157 | VIIAR | < -0.25
158 | VIIRPSFIHGGMCRLGACTR | < -0.25
159 | VIIRSTSRGRRCSDGPCVTA | < -0.25
160 | VIIWSCHSR | -0.243
161 | VIIWSVTLSLVVGGYRLNSR | < -0.25
162 | VILGVIGSSSARDYCKFLIP | < -0.25
163 | VILKSDSCRTGLSTNFSGYG | < -0.25
164 | VIPGRMCPAYQLSKDLTTIS | < -0.25
165 | VIPRELLMGFWRTDHCINRL | < -0.25
166 | VIRGENLLRLLIRNSPTKHD | < -0.25
167 | VIRGYTVPTDLR | < -0.25
168 | VIRQRLR | -0.0898
169 | VIRRGLCPFFSASGTIRGT | < -0.25
170 | VISGQRPGTQGGITK | < -0.25
171 | VITV | < -0.25
172 | VIVGVNCGVNLARQYRDVLS | < -0.25
173 | VIVLAYDSYS | < -0.25
174 | VIVSRILLKGLWELGTLGRY | 0.0558
175 | VIWTESAGALVIPVRNSIIG | < -0.25

Row | Substance | growth estimate
176 | VKAIVLFRGERELPDTCGTG | < -0.25
177 | VKAVGFCAFGTLQGEMCARS | < -0.25
178 | VKAWYSPRYA | < -0.25
179 | VKCI | < -0.25
180 | VKCRHGPQLIVKRQQSCACS | < -0.25
181 | VKF | < -0.25
182 | VKFRTLEATLVLHFDHQWSA | < -0.25
183 | VKGARWQLVNRRVGDRLCEP | < -0.25
184 | VKGECGPA | -0.246
185 | VKGEIALCGSIVYESGYTCK | < -0.25
186 | VKLSSRNWVK | < -0.25
187 | VKMRPLCPEYV | < -0.25
188 | VKPPIVLLLNCYVRGITRPS | < -0.25
189 | VKRAKTDPNAGPP | < -0.25
190 | VKRGTKPRSDLMRTFSQLTW | < -0.25
191 | VKRICEHLGNSVLTYRVRTA | < -0.25
192 | VKT | < -0.25
193 | VKVLSVRGPLDGHSHVFGRP | < -0.25
194 | VKVPASHREISRRTSLRSRV | < -0.25
